Laboratory results taken from publication PMC4371837.
These are yes or no findings as the source states them, for the method shown. In cells and extracts the contact can be indirect. Here binding means that the protein was enriched with, or labelled near, the bait; the list need not be complete.

The chains behind the UniProt entries cited, without tags or fusion partners.
UniProt Q8VIG1: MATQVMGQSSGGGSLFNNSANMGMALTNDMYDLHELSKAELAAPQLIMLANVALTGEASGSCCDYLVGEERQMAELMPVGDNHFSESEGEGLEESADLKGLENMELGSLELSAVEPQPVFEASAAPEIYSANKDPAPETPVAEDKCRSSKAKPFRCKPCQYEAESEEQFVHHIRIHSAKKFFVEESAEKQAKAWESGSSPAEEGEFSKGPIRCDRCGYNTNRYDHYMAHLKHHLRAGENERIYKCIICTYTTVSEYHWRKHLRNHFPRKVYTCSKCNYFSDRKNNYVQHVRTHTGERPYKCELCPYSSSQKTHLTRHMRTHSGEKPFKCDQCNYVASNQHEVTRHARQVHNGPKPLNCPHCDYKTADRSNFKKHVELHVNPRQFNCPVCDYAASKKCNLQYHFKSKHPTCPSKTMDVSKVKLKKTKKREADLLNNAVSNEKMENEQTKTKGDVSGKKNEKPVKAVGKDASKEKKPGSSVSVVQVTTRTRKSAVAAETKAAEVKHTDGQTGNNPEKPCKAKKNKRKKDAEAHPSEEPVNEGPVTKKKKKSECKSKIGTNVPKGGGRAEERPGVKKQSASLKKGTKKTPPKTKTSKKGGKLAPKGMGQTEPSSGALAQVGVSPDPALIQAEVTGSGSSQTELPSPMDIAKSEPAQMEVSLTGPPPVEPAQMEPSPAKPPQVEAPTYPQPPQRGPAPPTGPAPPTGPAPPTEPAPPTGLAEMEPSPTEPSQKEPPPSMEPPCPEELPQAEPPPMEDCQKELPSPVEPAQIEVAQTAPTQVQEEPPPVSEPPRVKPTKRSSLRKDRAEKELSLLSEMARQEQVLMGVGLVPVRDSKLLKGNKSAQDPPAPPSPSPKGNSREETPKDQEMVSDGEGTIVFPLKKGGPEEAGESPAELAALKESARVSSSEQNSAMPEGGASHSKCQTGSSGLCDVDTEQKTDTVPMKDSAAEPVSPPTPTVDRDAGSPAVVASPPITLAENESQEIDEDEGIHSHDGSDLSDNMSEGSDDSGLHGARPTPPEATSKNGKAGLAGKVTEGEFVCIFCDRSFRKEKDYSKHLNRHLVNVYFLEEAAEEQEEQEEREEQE

Each binder was assayed against Flag-BioT-mREST (mouse REST tagged with a biotin acceptor sequence) (mouse) (UniProt Q8VIG1) (assay: affinity purification with mass spectrometry; biotin-tagged REST captured on streptavidin M-280 magnetic beads from cleared whole-cell lysate of mouse ESCs (clone #60), 4°C, 3 hr, 50 mM Tris-Cl pH 7.5, 150 mM NaCl, 0.5% Triton X-100, 0.5 mM EDTA, 10% glycerol; MudPIT on three independent purifications; parental BirA-J1 cells as control).

binding	Binder
binds	Utf1 (protein, UniProt Q6J1H4 1-339) MLLRPRRLPAFSPPSPASPDAELRSAGDVPVTTSDAFATSGGMAEPGSPKAPVSPDSAQRTPWSARETELLLGTLLQPAMWRSLLLDRRQTLPTYRRVSAALARQQVRRTPAQCRRRYKFLKDKLRDSQGQPSGPFDNQIRQLMGLLGDDGPPRVRRRSTGPGRPQRRGRSSLSALAPAPAPVEQEAELPLAAENDEPAPALRFSSSTTKSAGAHRITSSPPLTSTDTLPPEPGHTFESSPTPTPDHDVETPNEPPGLSQGRASSPQVAPQSLNTALLQTLTHLGDISTVLGPLRDQLSTLNQHVEHLRGSFDQTVSLAVGFILGSAASERGILGDLRQ
binds	Btrc (protein, UniProt Q3ULA2 1-605) MDPAEAVLQEKALKFMCSMPRSLWLGCSSLADSMPSLRCLYNPGTGALTAFQNSSEREDCNNGEPPRKIIPEKNSLRQTYNSCARLCINQETVCLTSTAMKTENCVAKAKLANGTSSMIVPKQRKLSASYEKEKELCVKYFEQWSESDQVEFVEHLISQMCHYQHGHINSYLKPMLQRDFITALPARGLDHIAENILSYLDAKSLCAAELVCKEWYRVTSDGMLWKKLIERMVRTDSLWRGLAERRGWGQYLFKNKPPDENAPPNSFYRALYPKIIQDIETIESNWRCGRHSLQRIHCRSETSKGVYCLQYDDQKIVSGLRDNTIKIWDKSTLECKRILTGHTGSVLCLQYDERVIITGSSDSTVRVWDVNAGEMLNTLIHHCEAVLHLRFNNGMMVTCSKDRSIAVWDMASPTDITLRRVLVGHRAAVNVVDFDDKYIVSASGDRTIKVWNTSTCEFVRTLNGHKRGIACLQYRDRLVVSGSSDNTIRLWDIECGACLRVLEGHEELVRCIRFDNKRIVSGAYDGKIKVWDLMAALDPRAPAGTLCLRTLVEHSGRVFRLQFDEFQIVSSSHDDTILIWDFLNDPAAHAEPPRSPSRTYTYISR
binds	Bxdc2 (protein, UniProt Q9DCA5 1-353) MAATKRKRRGGLEVQAKKPKRSSKDAGQPAKQADVAKEAEEENRDRIPGPVCKGKWKNKERILIFSSRGINFRTRHLMQDLRMLMPHSKADTKMDRKDKLFVINEVCEMKNCNKCIYFEAKKKQDLYMWLSNSPHGPSAKFLVQNIHTLAELKMTGNCLKGSRPLLSFDPAFDDLPHYALLKEFLIQIFSTPRYHPKSQPFVDHVFTFTILDNRIWFRNFQIIEEDAALVEIGPRFVLNLIKIFQGSFGGPTLYENPHYQSPNMHRRVIRSITAAKYRERQQVKDVQKLRKKEPKTILPHDPTADVFVIPAEEKPVEIQWVKPEPKVDLKARKRRIYKRHRKLQQKMSRGSAK
binds	Lin28A (protein, UniProt Q8K3Y3 1-209) MGSVSNQQFAGGCAKAAEKAPEEAPPDAARAADEPQLLHGAGICKWFNVRMGFGFLSMTARAGVALDPPVDVFVHQSKLHMEGFRSLKEGEAVEFTFKKSAKGLESIRVTGPGGVFCIGSERRPKGKNMQKRRSKGDRCYNCGGLDHHAKECKLPPQPKKCHFCQSINHMVASCPLKAQQGPSSQGKPAYFREEEEEIHSPALLPEAQN
binds	Fbxwi 1 (protein, UniProt Q5SRY7 1-542) MEPDSVIEDKTIELMCSVPRSLWLGCANLVESMCALSCLQSMPSVRCLQISNGTSSVIVSRKRPSEGNYQKEKDLCIKYFDQWSESDQVEFVEHLISRMCHYQHGHINSYLKPMLQRDFITALPEQGLDHIAENILSYLDARSLCAAELVCKEWQRVISEGMLWKKLIERMVRTDPLWKGLSERRGWDQYLFKNRPTDGPPNSFYRSLYPKIIQDIETIESNWRCGRHNLQRIQCRSENSKGVYCLQYDDDKIISGLRDNSIKIWDKSSLECLKVLTGHTGSVLCLQYDERVIVTGSSDSTVRVWDVNTGEVLNTLIHHNEAVLHLRFSNGLMVTCSKDRSIAVWDMASATDITLRRVLVGHRAAVNVVDFDDKYIVSASGDRTIKVWSTSTCEFVRTLNGHKRGIACLQYRDRLVVSGSSDNTIRLWDIECGACLRVLEGHEELVRCIRFDNKRIVSGAYDGKIKVWDLQAALDPRAPASTLCLRTLVEHSGRVFRLQFDEFQIISSSHDDTILIWDFLNVPPSAQNETRSPSRTYTYISR
binds	Sin3a (protein, UniProt Q60520 1-1274) MKRRLDDQESPVYAAQQRRIPGSTEAFSHQHRVLAPAPPVYEAVSETMQSATGIQYSVAPNYQVSAVPQSSGSHGPAIAAVHSSHHHPTAVQPHGGQVVQSHAHPAPPVAPVQGQQQFQRLKVEDALSYLDQVKLQFGSQPQVYNDFLDIMKEFKSQSIDTPGVISRVSQLFKGHPDLIMGFNTFLPPGYKIEVQTNDMVNVTTPGQVHQIPTHGIQPQPQPPPQHPSQPSSQSAPTPAQPAPQPTAAKVSKPSQLQAHTPASQQTPPLPPYASPRSPPVQPHTPVTISLGTAPSLQNNQPVEFNHAINYVNKIKNRFQGQPDIYKAFLEILHTYQKEQRNAKEAGGNYTPALTEQEVYAQVARLFKNQEDLLSEFGQFLPDANSSVLLSKTTAEKVDSVRNDHGGTVKKPQLNNKPQRPSQNGCQIRRHSGTGATPPVKKKPKLMSLKESSMADASKHGVGTESLFFDKVRKALRSAEAYENFLRCLVIFNQEVISRAELVQLVSPFLGKFPELFNWFKNFLGYKESVHLESFPKERATEGIAMEIDYASCKRLGSSYRALPKSYQQPKCTGRTPLCKEVLNDTWVSFPSWSEDSTFVSSKKTQYEEHIYRCEDERFELDVVLETNLATIRVLEAIQKKLSRLSAEEQAKFRLDNTLGGTSEVIHRKALQRIYADKAADIIDGLRKNPSIAVPIVLKRLKMKEEEWREAQRGFNKVWREQNEKYYLKSLDHQGINFKQNDTKVLRSKSLLNEIESIYDERQEQATEENAGVPVGPHLSLAYEDKQILEDAAALIIHHVKRQTGIQKEDKYKIKQIMHHFIPDLLFAQRGDLSDVEEEEEEEMDVDEATGAPKKHNGVGGSPPKSKLLFSNTAAQKLRGMDEVYNLFYVNNNWYIFMRLHQILCLRLLRICSQAERQIEEENREREWEREVLGIKRDKSDSPAIQLRLKEPMDVDVEDYYPAFLDMVRSLLDGNIDSSQYEDSLREMFTIHAYIAFTMDKLIQSIVRQLQHIVSDEVCVQVTDLYLAENNNGATGGQLNSQTSRSLLESAYQRKAEQLMSDENCFKLMFIQSQGQVQLTVELLDTEEENSDDPVEAERWSDYVERYMSSDTTSPELREHLAQKPVFLPRNLRRIRKCQRGREQQEKEGKEGNSKKTMENVESLDKLECRFKLNSYKMVYVIKSEDYMYRRTALLRAHQSHERVSKRLHQRFQAWVDKWTKEHVPREMAAETSKWLMGEGLEGLVPCTTTCDTETLHFVSINKYRVKYGTVFKAP
binds	Trim71 (protein, UniProt Q1PSW8 1-855) MASFPETDFQICLLCKEMCGSPAPLSSNSSASSSSSQTSTSSAGGGGPGAAARRLHVLPCLHAFCRPCLEAHRLPAPGGAGPAEALKLRCPVCDQKVVLAEAAGMDALPSSAFLLSNLLDAVVATAEEPPPKNGRAGGGPGGAGGHSNHRHHAHHPAQRAAAPAPQPPPGPAASPGSLLMRRPHGCSSCDEGNAASSRCLDCQEHLCDNCVRAHQRVRLTKDHYIERGPPGPAAASAAQQLGLGPPFAGAPFSILSVFPERLGFCQHHDDEVLHLYCDTCSVPICRECTLGRHGGHSFAYLQDALQDSRALTIQLLADAQQGRQALQLSIEQAQTVAEQVEMKAKVVQSEVKAVTARHKKALEDRECELLWKVEKIRQVKAKSLFLQVEKLRQSLSKLESTISAVQQVLEEGRALDILLARDRMLAQVQELKTIRGLLQPQEDDRIMFTPPDQALYLALKSIGFVSSGAFAPLTKATGDGIKRALQGKVASFTVMGYDHDGEPRHSGGDLMSVVVLGPDGNLFGAEVSDQQNGTYIVSYRPQLEGEHLVSVTLYNQHIENSPFKVVVKSGRSYVGIGLPGLSFGSEGDGEGKLCRPWGVSVDKEGFIIVADRSNNRIQVFKPCGSFHHKFGTLGSRPGQFDRPAGVACDASRRIIVADKDNHRIQIFTFEGQFLLKFGEKGTKNGQFNYPWDVAVNSEGKILVSDTRNHRIQLFGPDGVFLNKYGFEGSLWKHFDSPRGVAFNNEGHLVVTDFNNHRLLVIHPDCQSARFLGSEGSGNGQFLRPQGVAVDQEGRIIVADSRNHRVQMFEANGSFLCKFGAQGSGFGQMDRPSGIAVTPDGLIVVVDFGNNRILIF
binds	Cdyl2 (protein, UniProt Q9D5D8 1-503) MASGDLYEVERIVDKRKNKKGKWEYLIRWKGYGSTEDTWEPEHHLLHCEEFIDEFNGLHLSKDKRVKSGKQAGASKLLRDARGLPVERLSHRPLEPGKSKPSSHKRKRVNSPLSRPKKGSSGKAPDRATKTVSYRTTPSGLQIMPLKKAQNGLENGDAGSEKDESHFGNGSHQPDLELNDQLGEQEASDCDGTHSALVENGVGSALTNGGLNLHSPVKRKLETEKDYVFDKRLRYSVRQNESNCRFRDIVVRKEEGFTHILLSSQTSDNNALTPEIMKEVRRALCNAATDDSKLLLLSAVGSVFCSGLDYSYLIGRLSSDRRKESTRIAEAIRDFVKAFIQFKKPIVVAINGPALGLGASILPLCDIVWASEKAWFQTPYATIRLTPAGCSSYTFPQILGVALANEMLFCGRKLTAQEACSRGLVSQVFWPTTFSQEVMLRVKEMASCSAVVLEESKCLVRSFLKSVLEEVNEKECVMLKQLWSSSKGLDSLFSYLQDKIYEV
binds	Gcdh (protein, UniProt Q60759 45-438) RPVFDWKDPLILEEQLTADEKLIRDTFRNYCQERLMSRILLANRNEVFHRDIVYEMGELGVLGPTIKGYGCAGVSSVAYGLLTRELERVDSGYRSMMSVQSSLVMHPIYTYGSEEQRQKYLPGLAKGELLGCFGLTEPNHGSDPGGMETRARHNPSNQSYTLSGTKTWITNSPVADLFIVWARCEDNCIRGFILEKGMRGLSAPRIEGKFSLRASATGMIIMDSVEVPEENVLPNVSSLAGPFGCLNTARYGITWGVLGAAEFCLHTARQYALDRIQFGVPLARNQLVQKKLADMLTEITLGLHACLQLGRLKDQDKATPEMVSMLKRNNCGKALDIARQARDILGGNGISDEYHVIRHAMNLEAVNTYEGTHDIHALILGRAITGIQAFTVGK
binds	Cdyl (protein, UniProt Q9WTK2 1-593) MGIGNSQPNSQEAQLCTLPEKAEQPTDDNTCQQNNVVPATVSEPDQASPAIQDAETQVESIVDKRKNKKGKTEYLVRWKGYDSEDDTWEPEQHLVNCEEYIHDFNRRHNERQKEGSLARASRASPSNARKQISRSTHSTLSKTNSKALVVGKDHESKSSQLLAASQKFRKNPAPSLANRKNMDLAKSGIKILVPKSPVKGRTSVDGFQGESPEKLDPVDQGAEDTVAPEVTAEKPTGALLGPGAERARMGSRPRIHPLVPQVSGPVTAAMATGLAVNGKGTSPFMDALAANGTVTIQTSVTGVTAGKRKFIDDRRDQPFDKRLRFSVRQTESAYRYRDIVVRKQDGFTHILLSTKSSENNSLNPEVMKEVQSALSTAAADDSKLVLLSAVGSVFCCGLDFIYFIRRLTDDRKRESTKMADAIRNFVNTFIQFKKPIIVAVNGPAIGLGASILPLCDVVWANEKAWFQTPYTTFGQSPDGCSTVMFPKIMGGASANEMLFSGRKLTAQEACGKGLVSQVFWPGTFTQEVMVRIKELASCNPVVLEESKALVRCNMKMELEQANERECEVLKKIWGSAQGMDSMLKYLQRKIDEF
